From paper PMC5722368
No constants are given. Whether binding was seen depends on the method and setting. Binding calls can cover weak binding; strength is not graded here. Tags and fused reporters may be left off the sequences shown.

Target: T1, Schistosoma mansoni histone deacetylase 8 (SmHDAC8), Gal4-DBD bait fusion (S. mansoni) (UniProt A5H660)
T1 sequence: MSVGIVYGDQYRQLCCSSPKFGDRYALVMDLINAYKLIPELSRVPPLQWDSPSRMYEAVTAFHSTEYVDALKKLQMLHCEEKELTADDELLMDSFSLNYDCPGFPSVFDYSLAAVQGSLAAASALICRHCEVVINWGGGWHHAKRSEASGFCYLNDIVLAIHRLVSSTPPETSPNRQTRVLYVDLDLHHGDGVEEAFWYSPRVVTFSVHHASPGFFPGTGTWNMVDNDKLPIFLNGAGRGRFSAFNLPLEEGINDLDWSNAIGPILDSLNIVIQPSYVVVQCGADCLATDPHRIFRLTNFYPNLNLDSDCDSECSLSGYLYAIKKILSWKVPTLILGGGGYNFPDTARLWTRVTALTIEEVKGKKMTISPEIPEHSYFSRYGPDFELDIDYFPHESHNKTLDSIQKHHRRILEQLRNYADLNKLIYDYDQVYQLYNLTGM
Test: two-hybrid; screen of an S. mansoni adult worm cDNA library (Gal4-AD, pGADT7, AH109) with Gal4-DBD-SmHDAC8 bait (pGBKT7, Y187); mating; selection on medium lacking adenine, histidine, leucine and tryptophan, 30°C, 5 days; restreaking and liquid LacZ assay

binding: binds
Substance: actin 5c (S. mansoni)
